Experimental data from publication PMC8786784.

B1: Cysteine-rich protein 2 (protein, UniProt P52943 1-208)
chain: MASKCPKCDKTVYFAEKVSSLGKDWHKFCLKCERCSKTLTPGGHAEHDGKPFCHKPCYATLFGPKGVNIGGAGSYIYEKPLAEGPQVTGPIEVPAARAEERKASGPPKGPSRASSVTTFTGEPNTCPRCSKKVYFAEKVTSLGKDWHRPCLRCERCGKTLTPGGHAEHDGQPYCHKPCYGILFGPKGVNTGAVGSYIYDRDPEGKVQP
B2: Dihydropteridine reductase (protein, UniProt P09417 1-244)
chain: MAAAAAAGEARRVLVYGGRGALGSRCVQAFRARNWWVASVDVVENEEASASIIVKMTDSFTEQADQVTAEVGKLLGEEKVDAILCVAGGWAGGNAKSKSLFKNCDLMWKQSIWTSTISSHLATKHLKEGGLLTLAGAKAALDGTPGMIGYGMAKGAVHQLCQSLAGKNSGMPPGAAAIAVLPVTLDTPMNRKSMPEADFSSWTPLEFLVETFHDWITGKNRPSSGSLIQVVTTEGRTELTPAYF
B3: Fructose-bisphosphate aldolase C (protein, UniProt P09972 1-364)
chain: MPHSYPALSAEQKKELSDIALRIVAPGKGILAADESVGSMAKRLSQIGVENTEENRRLYRQVLFSADDRVKKCIGGVIFFHETLYQKDDNGVPFVRTIQDKGIVVGIKVDKGVVPLAGTDGETTTQGLDGLSERCAQYKKDGADFAKWRCVLKISERTPSALAILENANVLARYASICQQNGIVPIVEPEILPDGDHDLKRCQYVTEKVLAAVYKALSDHHVYLEGTLLKPNMVTPGHACPIKYTPEEIAMATVTALRRTVPPAVPGVTFLSGGQSEEEASFNLNAINRCPLPRPWALTFSYGRALQASALNAWRGQRDNAGAATEEFIKRAEVNGLAAQGKYEGSGEDGGAAAQSLYIANHAY
B4: Immunoglobulin superfamily member 8 (protein, UniProt Q969P0 28-613)
chain: REVLVPEGPLYRVAGTAVSISCNVTGYEGPAQQNFEWFLYRPEAPDTALGIVSTKDTQFSYAVFKSRVVAGEVQVQRLQGDAVVLKIARLQAQDAGIYECHTPSTDTRYLGSYSGKVELRVLPDVLQVSAAPPGPRGRQAPTSPPRMTVHEGQELALGCLARTSTQKHTHLAVSFGRSVPEAPVGRSTLQEVVGIRSDLAVEAGAPYAERLAAGELRLGKEGTDRYRMVVGGAQAGDAGTYHCTAAEWIQDPDGSWAQIAEKRAVLAHVDVQTLSSQLAVTVGPGERRIGPGEPLELLCNVSGALPPAGRHAAYSVGWEMAPAGAPGPGRLVAQLDTEGVGSLGPGYEGRHIAMEKVASRTYRLRLEAARPGDAGTYRCLAKAYVRGSGTRLREAASARSRPLPVHVREEGVVLEAVAWLAGGTVYRGETASLLCNISVRGGPPGLRLAASWWVERPEDGELSSVPAQLVGGVGQDGVAELGVRPGGGPVSVELVGPRSHRLRLHSLGPEDEGVYHCAPSAWVQHADYSWYQAGSARSGPVTVYPYMHALDTLFVPLLVGTGVALVTGATVLGTITCCFMKRLRKR
B5: Peroxiredoxin-2 (protein, UniProt P32119 1-198)
chain: MASGNARIGKPAPDFKATAVVDGAFKEVKLSDYKGKYVVLFFYPLDFTFVCPTEIIAFSNRAEDFRKLGCEVLGVSVDSQFTHLAWINTPRKEGGLGPLNIPLLADVTRRLSEDYGVLKTDEGIAYRGLFIIDGKGVLRQITVNDLPVGRSVDEALRLVQAFQYTDEHGEVCPAGWKPGSDTIKPNVDDSKEYFSKHN
B6: Quinone oxidoreductase (protein, UniProt Q08257 1-329)
chain: MATGQKLMRAVRVFEFGGPEVLKLRSDIAVPIPKDHQVLIKVHACGVNPVETYIRSGTYSRKPLLPYTPGSDVAGVIEAVGDNASAFKKGDRVFTSSTISGGYAEYALAADHTVYKLPEKLDFKQGAAIGIPYFTAYRALIHSACVKAGESVLVHGASGGVGLAACQIARAYGLKILGTAGTEEGQKIVLQNGAHEVFNHREVNYIDKIKKYVGEKGIDIIIEMLANVNLSKDLSLLSHGGRVIVVGSRGTIEINPRDTMAKESSIIGVTLFSSTKEEFQQYAAALQAGMEIGWLKPVIGSQYPLEKVAEAHENIIHGSGATGKMILLL
B7: Adenylate kinase isoenzyme (protein, UniProt P00568 1-194)
chain: MEEKLKKTKIIFVVGGPGSGKGTQCEKIVQKYGYTHLSTGDLLRSEVSSGSARGKKLSEIMEKGQLVPLETVLDMLRDAMVAKVNTSKGFLIDGYPREVQQGEEFERRIGQPTLLLYVDAGPETMTQRLLKRGETSGRVDDNEETIKKRLETYYKATEPVIAFYEKRGIVRKVNAEGSVDSVFSQVCTHLDALK

Columns and labels:
[1] = target: amyloid-β (Aβ) peptide (human (endogenous in brain tissue)) (UniProt P05067); assay: affinity purification with mass spectrometry; co-IP of Aβ from the tris-soluble fraction (500 ug protein) of human frontal cortex (controls, sAD, rpAD; n = 4) on Dynabeads coated with antibodies 4G8 and 6E10, overnight at 4 °C, washes with 0.3% CHAPS; LC-ESI MS/MS of the tryptic digest
[2] = target: amyloid-β (Aβ) peptide (human (endogenous in brain tissue)) (UniProt P05067); assay: condition: only tris-soluble fraction of sAD brains; affinity purification with mass spectrometry; as a1, tris-soluble fraction of sAD brains only

Binder | binding [1] | binding [2]
B1 | binds | 
B2 | binds | 
B3 | binds | 
B4 | binds | 
B5 | binds | no binding
B6 | binds | 
B7 | binds | 

No constants are given. Whether binding was seen depends on the method and setting. In cells and extracts the contact can be indirect. These calls come from enrichment with a bait or labelling near it, and not all partners need be listed. For some assays here: A no says only that the protein was not detected with the bait.
